Results are given in words; binding and its absence hold for the method and conditions named. For part of these data: Binding seen in cells or lysates may run through a third protein. Some binding calls cover weakened binding; strength is not graded here. For part of these data: Tags and fused reporters may be left off the sequences shown. Each block holds one substance with its values, some of them ahead of it.
Assays:
[1] = molecular target: T1, growth hormone receptor (rabbit, wild type) (rabbit) (UniProt P19941); assay: co-IP; GHR immunoprecipitated with anti-GHR and protein A beads from lysates of GHR-expressing Hek293 cells transfected with Flag-Jak2 constructs; lysis in 20 mM Tris pH 8.0, 150 mM NaCl, 0.5% NP40; blot with anti-Flag; cells with or without GH for 15 min at 37°C
T1 sequence: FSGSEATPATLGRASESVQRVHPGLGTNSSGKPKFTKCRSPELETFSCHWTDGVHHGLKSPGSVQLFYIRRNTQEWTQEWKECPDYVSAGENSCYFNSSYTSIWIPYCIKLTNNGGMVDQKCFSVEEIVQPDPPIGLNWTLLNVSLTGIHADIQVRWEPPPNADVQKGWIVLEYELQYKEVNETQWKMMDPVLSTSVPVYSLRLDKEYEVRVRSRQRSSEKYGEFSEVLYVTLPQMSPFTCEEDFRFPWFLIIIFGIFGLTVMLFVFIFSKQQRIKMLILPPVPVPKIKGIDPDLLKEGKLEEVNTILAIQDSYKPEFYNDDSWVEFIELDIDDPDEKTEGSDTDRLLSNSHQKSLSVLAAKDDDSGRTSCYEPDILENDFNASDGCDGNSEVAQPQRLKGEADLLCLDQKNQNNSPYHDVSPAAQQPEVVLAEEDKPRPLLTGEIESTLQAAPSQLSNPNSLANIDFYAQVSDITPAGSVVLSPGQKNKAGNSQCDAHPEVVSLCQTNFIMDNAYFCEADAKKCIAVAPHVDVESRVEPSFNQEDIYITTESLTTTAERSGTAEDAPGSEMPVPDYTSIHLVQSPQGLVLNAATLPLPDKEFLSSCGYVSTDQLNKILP

Sequences of proteins named here, by UniProt entry; tags and fusion partners are left off. Residues count along the entry.
UniProt Q62120: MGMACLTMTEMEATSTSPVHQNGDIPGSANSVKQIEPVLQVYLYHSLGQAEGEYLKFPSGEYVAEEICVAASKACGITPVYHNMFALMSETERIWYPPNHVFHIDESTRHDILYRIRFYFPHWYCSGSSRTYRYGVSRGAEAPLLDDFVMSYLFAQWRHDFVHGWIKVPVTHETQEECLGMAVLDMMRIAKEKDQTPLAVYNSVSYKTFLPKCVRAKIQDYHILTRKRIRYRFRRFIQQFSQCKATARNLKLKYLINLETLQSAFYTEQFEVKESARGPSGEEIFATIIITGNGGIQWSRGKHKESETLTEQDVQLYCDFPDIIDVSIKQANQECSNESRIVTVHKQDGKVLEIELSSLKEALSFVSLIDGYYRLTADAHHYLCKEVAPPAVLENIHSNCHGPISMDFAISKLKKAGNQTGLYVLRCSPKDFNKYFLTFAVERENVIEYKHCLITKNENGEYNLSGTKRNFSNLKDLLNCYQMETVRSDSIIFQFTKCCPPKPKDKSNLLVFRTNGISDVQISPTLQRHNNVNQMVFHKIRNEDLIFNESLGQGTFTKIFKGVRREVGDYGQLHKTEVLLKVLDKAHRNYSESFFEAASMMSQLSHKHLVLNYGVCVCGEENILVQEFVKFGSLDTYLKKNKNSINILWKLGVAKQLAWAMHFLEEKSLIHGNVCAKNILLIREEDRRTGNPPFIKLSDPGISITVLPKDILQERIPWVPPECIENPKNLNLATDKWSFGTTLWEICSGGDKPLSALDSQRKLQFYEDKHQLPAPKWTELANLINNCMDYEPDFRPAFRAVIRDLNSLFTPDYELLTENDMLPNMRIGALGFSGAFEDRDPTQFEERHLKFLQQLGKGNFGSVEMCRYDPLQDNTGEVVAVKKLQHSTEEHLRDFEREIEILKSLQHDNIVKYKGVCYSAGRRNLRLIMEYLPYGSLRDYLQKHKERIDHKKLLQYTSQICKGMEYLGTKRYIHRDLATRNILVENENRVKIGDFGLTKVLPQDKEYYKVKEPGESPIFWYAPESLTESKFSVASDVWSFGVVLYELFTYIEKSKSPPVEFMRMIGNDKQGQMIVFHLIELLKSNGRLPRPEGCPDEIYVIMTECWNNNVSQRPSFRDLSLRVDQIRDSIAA
UniProt P01241, residues 27-217: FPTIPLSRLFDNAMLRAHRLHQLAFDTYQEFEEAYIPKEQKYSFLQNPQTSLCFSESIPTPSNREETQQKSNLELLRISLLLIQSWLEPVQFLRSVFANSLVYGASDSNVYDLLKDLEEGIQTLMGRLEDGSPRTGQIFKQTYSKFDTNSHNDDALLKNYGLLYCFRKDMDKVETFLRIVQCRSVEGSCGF

GHR-Rluc (rabbit) = molecular target: T2, GHR-Rluc (rabbit) (UniProt P19941); assay: FRET or BRET; BRET in living Hek293-TR cells stably expressing GHR-Rluc (donor) and doxycycline-induced YFP-Jak2 (acceptor); ViviRen 60 µM, 37°C, PBS with 0.1% glucose and 25 mM Hepes; without GH or with 200 ng/ml hGH (0-4 min, 10-14 min)
T2 sequence: T1 sequence

[2] = molecular target: T1, growth hormone receptor (rabbit, wild type) (rabbit); assay: labelling of cells with fluorescent ligand (Cy3-GH), confocal microscopy; GHR-expressing Hek293 cells incubated with Cy3-GH for 15 min at 37°C; Hek293 cells without GHR as control (not shown); only the binder purified

binding [1]: binds
Substance: Flag-tagged wild-type mouse Jak2 (from UniProt Q62120 1-1132) (enzyme)

binding (GHR-Rluc (rabbit)): binds
Substance: YFP-Jak2 (wt) (from UniProt Q62120 1-1132) (enzyme)

binding [2]: binds
Substance: Cy3-labelled growth hormone (from UniProt P01241 27-217) (ligand)

From publication PMC3036580
